PubChem BioAssay AID1259293, Sanger Institute, 2017
Shown is a random part of 160 reagents tested. In the full data, 46 (29%) got an active call. 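The method behind the synergy score is not described; each call refers to one siRNA in a single cell line.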 Reagents against one gene are numbered here. Not all columns of the deposit are shown. Reagent sequences are not shown. The record does not give: the amount of reagent, the time to read-out.

Purpose: 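Which silenced kinases act in synergy with BYL719, cetuximab or trametinib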 (follow-up of hits)
Cell system: human NCI-H716 colorectal cancer cells
Reagents: single siRNA against human genes
Conditions: anchor drugs BYL719 at 1 µM, cetuximab at 5 µg/ml or trametinib at 10 nM, or DMSO vehicle alone
Measured: 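For every anchor drug, viability versus control pool 2 (non-targeting) and a synergy score of drug with siRNA, each a replicate average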
Reading the numbers: synergy score with BYL719 and synergy score with cetuximab and synergy score with trametinib: higher = stronger synthetic lethal effect with drug
Hit rule: 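Hit when any single drug gives a synergy score greater than 0.10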
Meaning of the calls: active = synergy with at least one drug; inactive = no synergy with any drug

Depletion of BRAF (B-Raf proto-oncogene, serine/threonine kinase) #1 gave: synergy score with BYL719 = -0.25; synergy score with cetuximab -0.152; synergy score with trametinib -0.0761; inactive.
BRAF (B-Raf proto-oncogene, serine/threonine kinase) #2 showed synergy score with BYL719 = 0.0856; synergy score with cetuximab -0.243; synergy score with trametinib -0.148; inactive.
Against BRAF (B-Raf proto-oncogene, serine/threonine kinase) #3, the values are synergy score with BYL719 = 0.0983; synergy score with cetuximab -0.0268; synergy score with trametinib 0.0931; inactive.
After knock-down of BRAF (B-Raf proto-oncogene, serine/threonine kinase) #4 the results were synergy score with BYL719 = -0.131; synergy score with cetuximab -0.143; synergy score with trametinib -0.0461; inactive.
With knock-down of PINK1 (PTEN induced kinase 1) #1 the results were synergy score with BYL719 = -0.179; synergy score with cetuximab -0.109; synergy score with trametinib -0.412; inactive.
Depletion of PINK1 (PTEN induced kinase 1) #2 came out at: synergy score with BYL719 = -0.23; synergy score with cetuximab -0.328; synergy score with trametinib 0.0244; inactive.
Silencing of PINK1 (PTEN induced kinase 1) #3 came out at: synergy score with BYL719 = -0.316; synergy score with cetuximab -0.257; synergy score with trametinib 0.106; active.
For PINK1 (PTEN induced kinase 1) #4, the entry reads synergy score with BYL719 = 0.00814; synergy score with cetuximab 0.00266; synergy score with trametinib 0.217; active.
Knock-down of RPS6KA4 (ribosomal protein S6 kinase A4) #1 came out at: synergy score with BYL719 = -0.17; synergy score with cetuximab 0.0634; synergy score with trametinib -0.188; inactive.
With knock-down of RPS6KA4 (ribosomal protein S6 kinase A4) #2 the results were synergy score with BYL719 = -0.133; synergy score with cetuximab -0.109; synergy score with trametinib -0.0637; inactive.
RPS6KA4 (ribosomal protein S6 kinase A4) #3 gave synergy score with BYL719 = -0.133; synergy score with cetuximab -0.0625; synergy score with trametinib -0.292; inactive.
Silencing of RPS6KA4 (ribosomal protein S6 kinase A4) #4 gave: synergy score with BYL719 = 0.137; synergy score with cetuximab -0.034; synergy score with trametinib 0.0106; active.
With knock-down of NLK (nemo like kinase) #1, the record shows synergy score with BYL719 = -0.0331; synergy score with cetuximab 0.164; synergy score with trametinib -0.0226; active.
NLK (nemo like kinase) #2 scored synergy score with BYL719 = -0.226; synergy score with cetuximab 0.387; synergy score with trametinib -0.0614; active.
Depletion of NLK (nemo like kinase) #3 gave: synergy score with BYL719 = -0.179; synergy score with cetuximab -0.109; synergy score with trametinib -0.469; inactive.
Depletion of NLK (nemo like kinase) #4 gave: synergy score with BYL719 = 0.106; synergy score with cetuximab -0.0408; synergy score with trametinib 0.121; active.
After knock-down of PIM1 (Pim-1 proto-oncogene, serine/threonine kinase) #1, the screen gave synergy score with BYL719 = 0.0437; synergy score with cetuximab 0.0515; synergy score with trametinib 0.16; active.
PIM1 (Pim-1 proto-oncogene, serine/threonine kinase) #2 scored synergy score with BYL719 = -0.173; synergy score with cetuximab -0.139; synergy score with trametinib 0.156; active.
After knock-down of PIM1 (Pim-1 proto-oncogene, serine/threonine kinase) #3, the record shows synergy score with BYL719 = -0.212; synergy score with cetuximab -0.267; synergy score with trametinib -0.0835; inactive.
PIM1 (Pim-1 proto-oncogene, serine/threonine kinase) #4 showed synergy score with BYL719 = -0.0382; synergy score with cetuximab -0.0716; synergy score with trametinib -0.203; inactive.
CDK6 (cyclin dependent kinase 6) #1 scored synergy score with BYL719 = 0.0275; synergy score with cetuximab -0.0427; synergy score with trametinib 0.0875; inactive.
For CDK6 (cyclin dependent kinase 6) #2 the deposit lists synergy score with BYL719 = -0.197; synergy score with cetuximab -0.21; synergy score with trametinib -0.105; inactive.
CDK6 (cyclin dependent kinase 6) #3 showed synergy score with BYL719 = -0.179; synergy score with cetuximab -0.109; synergy score with trametinib -0.107; inactive.
Against CDK6 (cyclin dependent kinase 6) #4, the entry reads synergy score with BYL719 = -0.215; synergy score with cetuximab -0.324; synergy score with trametinib 0.0883; inactive.

In a second layout: entries from further up
{"gene": "NLK (nemo like kinase)", "siRNA no.": 4, "synergy score with BYL719": 0.106, "synergy score with cetuximab": -0.0408, "synergy score with trametinib": 0.121, "outcome": "active"}
{"gene": "PIM1 (Pim-1 proto-oncogene, serine/threonine kinase)", "siRNA no.": 1, "synergy score with BYL719": 0.0437, "synergy score with cetuximab": 0.0515, "synergy score with trametinib": 0.16, "outcome": "active"}
{"gene": "PIM1 (Pim-1 proto-oncogene, serine/threonine kinase)", "siRNA no.": 2, "synergy score with BYL719": -0.173, "synergy score with cetuximab": -0.139, "synergy score with trametinib": 0.156, "outcome": "active"}
